Publication doi:10.1101/2025.10.29.685130
Results are given in words; binding and its absence hold for the method and conditions named. In cells and extracts the contact can be indirect. Here binding means that the protein was enriched with, or labelled near, the bait; the list need not be complete. A no says only that the protein was not detected with the bait.

Chains of the proteins cited; added tags and fusions are not shown.
UniProt P63141: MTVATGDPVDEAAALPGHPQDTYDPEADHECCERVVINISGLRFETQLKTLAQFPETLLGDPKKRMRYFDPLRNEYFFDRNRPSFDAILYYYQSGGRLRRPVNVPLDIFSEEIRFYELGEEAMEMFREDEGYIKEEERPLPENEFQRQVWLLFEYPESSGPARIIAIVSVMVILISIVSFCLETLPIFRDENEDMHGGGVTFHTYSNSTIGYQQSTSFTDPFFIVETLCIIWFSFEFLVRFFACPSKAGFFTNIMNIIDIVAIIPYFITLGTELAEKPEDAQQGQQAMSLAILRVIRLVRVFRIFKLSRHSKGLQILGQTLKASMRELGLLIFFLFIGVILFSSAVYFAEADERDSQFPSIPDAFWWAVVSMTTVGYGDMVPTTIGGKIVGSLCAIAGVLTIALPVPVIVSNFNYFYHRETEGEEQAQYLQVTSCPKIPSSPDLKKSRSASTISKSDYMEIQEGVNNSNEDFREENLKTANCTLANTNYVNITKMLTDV

B1: contactin 1 (protein, UniProt P12960 21-1001)
chain: DFTWHRRYGHGVSEEDKGFGPIFEEQPINTIYPEESLEGKVSLNCRARASPFPVYKWRMNNGDVDLTNDRYSMVGGNLVINNPDKQKDAGVYYCLASNNYGMVRSTEATLSFGYLDPFPPEERPEVKVKEGKGMVLLCDPPYHFPDDLSYRWLLNEFPVFITMDKRRFVSQTNGNLYIANVESSDRGNYSCFVSSPSITKSVFSKFIPLIPIPERTTKPYPADIVVQFKDIYTMMGQNVTLECFALGNPVPDIRWRKVLEPMPSTAEISTSGAVLKIFNIQLEDEGLYECEAENIRGKDKHQARIYVQAFPEWVEHINDTEVDIGSDLYWPCIATGKPIPTIRWLKNGYSYHKGELRLYDVTFENAGMYQCIAENAYGSIYANAELKILALAPTFEMNPMKKKILAAKGGRVIIECKPKAAPKPKFSWSKGTEWLVNSSRILIWEDGSLEINNITRNDGGIYTCFAENNRGKANSTGTLVITNPTRIILAPINADITVGENATMQCAASFDPALDLTFVWSFNGYVIDFNKEITHIHYQRNFMLDANGELLIRNAQLKHAGRYTCTAQTIVDNSSASADLVVRGPPGPPGGLRIEDIRATSVALTWSRGSDNHSPISKYTIQTKTILSDDWKDAKTDPPIIEGNMESAKAVDLIPWMEYEFRVVATNTLGTGEPSIPSNRIKTDGAAPNVAPSDVGGGGGTNRELTITWAPLSREYHYGNNFGYIVAFKPFDGEEWKKVTVTNPDTGRYVHKDETMTPSTAFQVKVKAFNNKGDGPYSLVAVINSAQDAPSEAPTEVGVKVLSSSEISVHWKHVLEKIVESYQIRYWAGHDKEAAAHRVQVTSQEYSARLENLLPDTQYFIEVGACNSAGCGPSSDVIETFTRKAPPSQPPRIISSVRSGSRYIITWDHVVALSNESTVTGYKILYRPDGQHDGKLFSTHKHSIEVPIPRDGEYVVEVRAHSDGGDGVVSQVKISGVSTLS
B2: SERA (enzyme, UniProt Q61753 1-533)
chain: MAFANLRKVLISDSLDPCCRKILQDGGLQVVEKQNLSKEELIAELQDCEGLIVRSATKVTADVINAAEKLQVVGRAGTGVDNVDLEAATRKGILVMNTPNGNSLSAAELTCGMIMCLARQIPQATASMKDGKWDRKKFMGTELNGKTLGILGLGRIGREVATRMQSFGMKTVGYDPIISPEVAASFGVQQLPLEEIWPLCDFITVHTPLLPSTTGLLNDSTFAQCKKGVRVVNCARGGIVDEGALLRALQSGQCAGAALDVFTEEPPRDRALVDHENVISCPHLGASTKEAQSRCGEEIAVQFVDMVKGKSLTGVVNAQALTSAFSPHTKPWIGLAEAMGTLMHAWAGSPKGTIQVVTQGTSLKNAGTCLSPAVIVGLLREASKQADVNLVNAKLLVKEAGLNVTTSHNPGVPGEQGSGECLLTVALAGAPYQAVGLVQGTTPMLQMLNGAVFRPEVPLRRGQPLLVFRAQPSDPGMLPTMIGLLAEAGVQLLSYQTSMVSDGEPWHVMGLSSLLPSLETWKQHVLEAFQFCF
B3: VAPA (protein, UniProt Q9WV55 1-249)
chain: MASASGAMAKHEQILVLDPPSDLKFKGPFTDVVTTNLKLQNPSDRKVCFKVKTTAPRRYCVRPNSGIIDPGSIVTVSVMLQPFDYDPNEKSKHKFMVQTIFAPPNISDMEAVWKEAKPDELMDSKLRCVFEMPNENDKLNDMEPSKAVPLNASKQDGPLPKPHSVSLNDTETRKLMEECKRLQGEMMKLSEENRHLRDEGLRLRKVAHSDKPGSTSAVSFRDNVTSPLPSLLVVIAAIFIGFFLGKFIL
B4: ASTRB (protein, UniProt Q80TI0 1-738)
chain: MKGFKLSCTASNSNRSTPACSPILRKRSRSPTPQNQDGDTMVEKGSDHSSDKSPSTPEQGVQRSCSSQSGRSGGKNSKKSQSWYNVLSPTYKQRNEDFRKLFKQLPDTERLIVDYSCALQRDILLQGRLYLSENWICFYSNIFRWETLLTVRLKDICSMTKEKTARLIPNAIQVCTDSEKHFFTSFGARDRTYMMMFRLWQNALLEKPLCPKELWHFVHQCYGNELGLTSDDEDYVPPDDDFNTMGYCEEIPIEENEVNDSSSKSSIETKPDASPQLPKKSITNSTLTSTGSSEAPVSFDGLPLEEEVMEGDGSLEKELAIDNIIGEKIEIMAPVTSPSLDFNDNEDIPTELSDSSDTHDEGEVQAFYEDLSGRQYVNEVFNFSVDKLYDLLFTNSPFLRDFMEQRRFSDIIFHPWKKEENGNQSRVILYTITLTNPLAPKTATVRETQTMYKASQESECYVIDAEVLTHDVPYHDYFYTINRYTLTRVARNKSRLRVSTELRYRKQPWGFVKTFIEKNFWSGLEDYFRHLETELTKTESTYLAEIHRQSPKEKASKSSAVRRRKRPHAHLRVPHLEEVMSPVTTPTDEDVGHRIKHVAGSTQTRHIPEDTPDGFHLQSVSKLLLVISCVICFSLVLLVVLNMMLFYKLWMLEYTTQTLTAWQGLRLQERLPQSQTEWAQLLESQQKYHDTELQKWREIIKSSVLLLDQMKDSLINLQNGIRSRDYTAESDEKRNRYH
B5: septin 6 (protein, UniProt Q9R1T4 1-434)
chain: MAAADIARQVGEDCRTVPLAGHVGFDSLPDQLVNKSVSQGFCFNILCVGETGLGKSTLMDTLFNTKFEGEPATHTQPGVQLQSNTYDLQESNVGLKLTIVSTVGFGDQINKEDSYKPIVEFIDAQFEAYLQEELKIRRVLHSYHDSRIHVCLYFIAPTGHSLKSLDLVTMKKLDSKVNIIPVIAKSDAISKSELAKFKIKITSELVSNGVQIYQFPTDDESVSEINGTMNAHLPFAVVGSTEEVKIGNKMMRARQYPWGTVQVENEAHCDFVKLREMLIRVNMEDLREQTHARHYELYRRCKLEEMGFKDTDPDSKPFSLQETYEAKRNEFLGELQKKEEEMRQMFVQRVKEKEAELKEAEKELHEKFDRLKKLHQEEKKKLEDKKKCLDEEMNAFKQRKAAAELLQSQGSQAGGSQTLKRDKEKKNNPWLCIE
B6: septin 7 (protein, UniProt O55131 1-436)
chain: MSVSARSAAAEERSVNCGTMAQPKNLEGYVGFANLPNQVYRKSVKRGFEFTLMVVGESGLGKSTLINSLFLTDLYSPEYPGPSHRIKKTVQVEQSKVLIKEGGVQLLLTIVDTPGFGDAVDNSNCWQPVIDYIDSKFEDYLNAESRVNRRQMPDNRVQCCLYFIAPSGHGLKPLDIEFMKRLHEKVNIIPLIAKADTLTPEECQQFKKQIMKEIQEHKIKIYEFPETDDEEENKLVKKIKDRLPLAVVGSNTIIEVNGKRVRGRQYPWGVAEVENGEHCDFTILRNMLIRTHMQDLKDVTNNVHYENYRSRKLAAVTYNGVDNNKNKGQLTKSPLAQMEEERREHVAKMKKMEMEMEQVFEMKVKEKVQKLKDSEAELQRRHEQMKKNLEAQHKELEEKRRQFEEEKANWEAQQRILEQQNSSRTLEKNKKKGKIF
B7: DLG3 (protein, UniProt P70175 1-849)
chain: MHKHQHCCKCPECYEVTRLAALRRLEPPGYGDWQVPDPYGPSGGNGASSGYGGYSSQTLPSQAGATPTPRTKAKLIPTGRDVGPVPPKPVPGKSTPKLNGSGPGWWPECTCTNRDWYEQASPAPLLVNPEALEPSLSVNGSDGMFKYEEIVLERGNSGLGFSIAGGIDNPHVPDDPGIFITKIIPGGAAAMDGRLGVNDCVLRVNEVDVSEVVHSRAVEALKEAGPVVRLVVRRRQPPPETIMEVNLLKGPKGLGFSIAGGIGNQHIPGDNSIYITKIIEGGAAQKDGRLQIGDRLLAVNNTNLQDVRHEEAVASLKNTSDMVYLKVAKPGSIHLNDMYAPPDYASTFTALADNHISHNSSLGYLGAVESKVTYPAPPQVPPTRYSPIPRHMLAEEDFTREPRKIILHKGSTGLGFNIVGGEDGEGIFVSFILAGGPADLSGELRRGDRILSVNGVNLRNATHEQAAAALKRAGQSVTIVAQYRPEEYSRFESKIHDLREQMMNSSMSSGSGSLRTSEKRSLYVRALFDYDRTRDSCLPSQGLSFSYGDILHVINASDDEWWQARLVTPHGESEQIGVIPSKKRVEKKERARLKTVKFHARTGMIESNRDFPGLSDDYYGAKNLKGVTSNTSDSESSSKGQEDAILSYEPVTRQEIHYARPVIILGPMKDRVNDDLISEFPHKFGSCVPHTTRPRRDNEVDGQDYHFVVSREQMEKDIQDNKFIEAGQFNDNLYGTSIQSVRAVAERGKHCILDVSGNAIKRLQQAQLYPIAIFIKPKSIEALMEMNRRQTYEQANKIFDKAMKLEQEFGEYFTAIVQGDSLEEIYNKIKQIIEDQSGHYIWVPSPEKL
B8: 14-3-3 γ (protein, UniProt P61982 1-247)
chain: MVDREQLVQKARLAEQAERYDDMAAAMKNVTELNEPLSNEERNLLSVAYKNVVGARRSSWRVISSIEQKTSADGNEKKIEMVRAYREKIEKELEAVCQDVLSLLDNYLIKNCSETQYESKVFYLKMKGDYYRYLAEVATGEKRATVVESSEKAYSEAHEISKEHMQPTHPIRLGLALNYSVFYYEIQNAPEQACHLAKTAFDDAIAELDTLNEDSYKDSTLIMQLLRDNLTLWTSDQQDDDGGEGNN
B9: dynamin 3 (protein, UniProt Q8BZ98 1-863)
chain: MGNREMEELIPLVNRLQDAFSALGQSCLLELPQIAVVGGQSAGKSSVLENFVGRDFLPRGSGIVTRRPLVLQLVTSKAEYAEFLHCKGKKFTDFDEVRHEIEAETDRVTGMNKGISSIPINLRVYSPHVLNLTLIDLPGITKVPVGDQPPDIEYQIRDMIMQFITRENCLILAVTPANTDLANSDALKLAKEVDPQGLRTIGVITKLDLMDEGTDARDVLENKLLPLRRGYVGVVNRSQKDIDGKKDIKAAMLAERKFFLSHPAYRHIADRMGTPHLQKVLNQQLTNHIRDTLPNFRNKLQGQLLSIEHEVEAFKNFKPEDPTRKTKALLQMVQQFAVDFEKRIEGSGDQVDTLELSGGAKINRIFHERFPFEIVKMEFNEKELRREISYAIKNIHGIRTGLFTPDMAFEAIVKKQIVKLKGPSLKSVDLVMQELINTVKKCTKRLANFPRLCEETERIVANHIREREGKTKDQVLLLIDIQVSYINTNHEDFIGFANAQQRSSQVHKKSTIGNQVIRKGWLTVSNIGIMKGGSKGYWFVLTAESLSWYKDDEEKEKKYMLPLDNLKVRDVEKGFMSSKHVFALFNTEQRNVYKDYRFLELACDSQEDVDSWKASLLRAGVYPDKSVGSNKTENDENGQAENFSMDPQLERQVETIRNLVDSYMSIINKCIRDLIPKTIMHLMINNVKDFINSELLAQLYSSEDQNTLMEESAEQAQRRDEMLRMYQALKEALAIIGDINTATVSTPAPPPVDDSWLQHSRRSPPPSPTTQRRLTISAPLPRPTSGRGPAPAIPSPGPHSGAPPVPFRPGPLPPFPNSSDSFGAPPQVPSRPTRAPPSVPSRRPPPSPTRPTIIRPLESSLLD

Target: phosphoY458 Kv1.2 (mouse) (UniProt P63141)
Experiment: affinity purification with mass spectrometry

| Binder | binding |
| --- | --- |
| B1 | binds |
| B2 | binds |
| B3 | binds |
| B4 | binds |
| B5 | no binding |
| B6 | no binding |
| B7 | no binding |
| B8 | no binding |
| B9 | no binding |
